The values below come from patent US20080299137A1.

Amino acid sequences for entries named in this document (tags omitted). Residues count along the entry.
UniProt P22646, residues 22-189: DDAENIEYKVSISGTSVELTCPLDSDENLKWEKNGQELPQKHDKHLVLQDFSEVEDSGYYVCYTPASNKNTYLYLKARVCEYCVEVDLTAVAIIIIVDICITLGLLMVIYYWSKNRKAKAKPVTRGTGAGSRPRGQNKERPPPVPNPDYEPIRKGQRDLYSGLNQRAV

No constants are given. Whether binding was seen depends on the method and setting. Some binding calls cover weakened binding; strength is not graded here. Tags and fused reporters may be left off the sequences shown.

In the assay the target is CD3 found on T cells (murine T cells purified from fresh mouse spleen) (mouse) (UniProt P22646). The assay can be described thus: flow cytometry (FACS) on murine spleen T cells. Background: A flow cytometer gives signals particle by particle.

B1: anti-mCD3-mFc-mNKG2D fusion protein (heavy chain of anti-mouse CD3-murine Fc-ectodomain of murine NKG2D, co-expressed with the light chain of anti mouse CD3) (Fc fusion)
heavy: EVQLVESGGGLVQPGKSLKLSCEASGFTFSGYGMHWVRQAPGRGLESVAYITSSSINIKYADAVKGRFTVSRDNAKNLLFLQMNILKSEDTAMYYCARFDWDKNYWGQGTMVTVSSATTTAPSVYPLAPACDSTTSTTNTVTLGCLVKGYFPEPVTVSWNSGALTSGVHTFPSVLHSGLYSLSSSVTVPSSTWPSQTVTCNVAHPASSTKVDKKIVPRGDPRDCGCKPCICTVPEVSSVFIFPPKPKDVLTITLTPKVTCVVVDISKDDPEVQFSWFVDDVEVHTAQTKPREEQFNSTFRSVSELPIMHQDWLNGKEFKCRVNSAAFPAPIEKTISKTKGRPKAPQVYTIPPPKEQMAKDKVSLTCMITDFFPEDITVEWQWNGQPAENYKNTQPIMDTDGSYFVYSKLNVQKSNWEAGNTFTCSVLHEGLHNHHTEKSLSHSPGKDLCNKEVPVSSREGYCGPCPNNWICHRNNCYQFFNEEKTWNQSQASCLSQNSSLLKIYSKEEQDFLKLVKSYHWMGLVQIPANGSWQWEDGSSLSYNQLTLVEIPKGSCAVYGSSFKAYTEDCANLNTYICMKRAV
light: DIQMTQSPSSLPASLGDRVTINCQASQDISNYLNWYQQKPGKAPKLLIYYTNKLADGVPSRFSGSGSGRDSSFTISSLESEDIGSYYCQQYYNYPWTFGPGTKLEIKRADAKPTVSIFPPSSEQLGTGSATLVCFVNNFYPKDINVKWKVDGSEKRDGVLQSVTDQDSKDSTYSLSSTLSLTKADYERHNLYTCEVTHKTSTAAIVKTLNRNEC
On to B1, for which the binding entry is given as “binds”.
